The target in this assay is T1, Flag-HA-labeled FKBP9 (FKBP9-HA) (human) (UniProt O95302).
T1 sequence: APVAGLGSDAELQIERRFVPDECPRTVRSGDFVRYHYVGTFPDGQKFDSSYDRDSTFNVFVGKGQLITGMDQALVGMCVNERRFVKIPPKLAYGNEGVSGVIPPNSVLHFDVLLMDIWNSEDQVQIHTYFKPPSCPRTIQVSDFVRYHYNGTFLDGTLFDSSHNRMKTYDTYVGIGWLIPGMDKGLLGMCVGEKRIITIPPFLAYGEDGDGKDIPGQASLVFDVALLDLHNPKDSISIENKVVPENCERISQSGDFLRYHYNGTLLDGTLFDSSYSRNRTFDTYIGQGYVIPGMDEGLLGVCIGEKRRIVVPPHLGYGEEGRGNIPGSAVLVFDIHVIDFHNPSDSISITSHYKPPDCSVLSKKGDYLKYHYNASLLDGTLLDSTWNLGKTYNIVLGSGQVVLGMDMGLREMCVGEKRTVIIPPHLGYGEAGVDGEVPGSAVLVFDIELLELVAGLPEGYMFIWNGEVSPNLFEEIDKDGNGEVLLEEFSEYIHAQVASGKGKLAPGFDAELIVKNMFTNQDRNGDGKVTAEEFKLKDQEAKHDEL
Description: co-IP; HA antibody co-immunoprecipitation from lysate of T98G cells expressing HA-tagged proteins (FKBP9-HA, 1461-HA, 903-HA, BiP-HA or EGFP-HA), detected by Western blot; buffer 50 mM Tris-HCl pH 7.4, 150 mM NaCl, 3 mM EDTA, 0.5% Triton X-100. (Immunoblotting shows a protein as a band on a membrane.)

These are yes or no findings as the source states them, for the method shown. In cells and extracts the contact can be indirect. Where a sequence is shown, tags or fusion partners need not be part of it.

Turning to “Hsp40, endogenous (human (endogenous in T98G))”, the binding result is listed as “no binding”.
Next, “Hsp70, endogenous (human (endogenous in T98G))”: “no binding”.

The values above are taken from PMC11402128, “The stability of FKBP9 maintained by BiP is crucial for glioma progression” (Genes & Diseases, 2023).
